Measurements published in patent publication US8410289B2, “Spirocyclic 3'-alkoxytetramic acids and-tetronic acids” (Bayer Cropscience AG, priority 2004, dated 2013).
Some entries share one result that the patent states for a list of compounds. At least one structure is not confirmed: it was looked up by name or label, or the drawing left a doubt.

Assays:
Type in all cases: in vivo
Setaria viridis [1] = experiment: Herbicidal pre-emergence action; conditions: pre-emergence method, 320 g/ha of a.i., 3 weeks
Echinochloa = experiment: Herbicidal post-emergence action (Example G); conditions: post-emergence method, 320 g/ha of a.i., about 3 weeks
Setaria viridis [2] = experiment: Herbicidal post-emergence action (Example G); conditions: post-emergence method, 320 g/ha of a.i., about 3 weeks
Avena sativa [3] = experiment: Herbicidal post-emergence action (Example G); conditions: post-emergence method, 320 g/ha of a.i., about 3 weeks
Lolium multiflorum [4] = experiment: Herbicidal post-emergence action (Example G); conditions: post-emergence method, 320 g/ha of a.i., about 3 weeks
Lolium multiflorum [5] = experiment: Herbicidal pre-emergence action; conditions: pre-emergence method, 320 g/ha of a.i., 3 weeks
Avena sativa [6] = experiment: Herbicidal pre-emergence action; conditions: pre-emergence method, 320 g/ha of a.i., 3 weeks
Myzus persicae = experiment: Myzus test (spray treatment); conditions: active compound concentration 500 g/ha, Chinese cabbage discs
Tetranychus urticae = experiment: Tetranychus test (OP-resistant/spray treatment); conditions: active compound concentration 100 g/ha, spray treatment, bean leaf discs, OP-resistant
Spodoptera frugiperda = Spodoptera frugiperda test (spray treatment); conditions: active compound concentration 500 g/ha, caterpillars on maize leaf discs
Phaedon cochleariae = experiment: Phaedon test (spray treatment); conditions: active compound concentration 500 g/ha, larvae on Chinese cabbage discs

Row | Compound | herbicidal effect against Setaria viridis (Setaria viridis [1]) [%] | herbicidal effect against Echinochloa (Echinochloa) [%] | herbicidal effect against Setaria viridis (Setaria viridis [2]) [%] | herbicidal effect against Avena sativa (Avena sativa [3]) [%] | herbicidal effect against Lolium multiflorum (Lolium multiflorum [4]) [%] | herbicidal effect against Lolium multiflorum (Lolium multiflorum [5]) [%] | herbicidal effect against Avena sativa (Avena sativa [6]) [%] | kill rate against Myzus persicae (Myzus persicae) [%] | kill rate against Tetranychus urticae (Tetranychus urticae) [%] | kill rate against Spodoptera frugiperda (Spodoptera frugiperda) [%] | kill rate against Phaedon cochleariae (Phaedon cochleariae) [%]
1 | CCc1cc(C)cc(C)c1C1=C(O)C2(CCCC(OC)C2)NC1=O (single isomer, unassigned) [Example I-1-a-71] | ≥ 80 | ≥ 70 | ≥ 70 | ≥ 70 | ≥ 70 | ≥ 80 | ≥ 80 |  |  |  | 
2 | CCCCOC1CCCC2(C1)NC(=O)C(c1cc(-c3ccc(Cl)cc3)ccc1C)=C2O (single isomer, unassigned) [Example I-1-a-6] |  |  |  |  |  |  |  | ≥ 90 | ≥ 70 | ≥ 80 | 
3 | CCc1cc(C)cc(Br)c1C1=C(O)C2(CCCC(OCCOC)C2)NC1=O (single isomer, unassigned) [Example I-1-a-40] |  | ≥ 70 | ≥ 70 | ≥ 70 | ≥ 70 |  |  | ≥ 90 | ≥ 70 |  | 
4 | CCc1cc(C)cc(Br)c1C1=C(O)C2(CCCC(OC)C2)NC1=O (single isomer, unassigned) [Example I-1-a-14] |  | ≥ 70 | ≥ 70 | ≥ 70 | ≥ 70 |  |  |  | ≥ 70 |  | ≥ 90
5 | COC1CCCC2(C1)OC(=O)C(c1ccc(Cl)cc1C)=C2O (single isomer, unassigned) [Example I-2-a-8] |  |  |  |  |  |  |  | ≥ 90 |  | ≥ 80 | 
6 | COC1CCCC2(C1)OC(=O)C(c1c(C)cc(C)cc1C)=C2O (single isomer, unassigned) [Example I-2-a-14] |  |  |  |  |  |  |  | ≥ 90 |  | ≥ 80 | ≥ 90
7 | COC1CCCC2(C1)OC(=O)C(c1c(C)cc(C)cc1C)=C2OC(=O)OC(C)C (centres unmarked) [Example I-2-c-4] |  |  |  |  |  |  |  | ≥ 90 | ≥ 70 | ≥ 80 | 
8 | CCCOC1CCCC2(C1)NC(=O)C(c1c(Br)cc(C)cc1CC)=C2O (single isomer, unassigned) [Example I-1-a-12] | ≥ 80 | ≥ 70 | ≥ 70 | ≥ 70 | ≥ 70 | ≥ 80 | ≥ 80 |  |  |  | 
9 | COC1CCCC2(C1)OC(=O)C(c1cc(C)c(C)cc1C)=C2O (centres unmarked) [Example I-2-a-11] |  |  |  |  |  |  |  | ≥ 90 |  | ≥ 80 | 
10 | CCCCOC1CCCC2(C1)NC(=O)C(c1c(C)cc(C)cc1C)=C2O (single isomer, unassigned) [Example I-1-a-1] |  | ≥ 70 | ≥ 70 | ≥ 70 | ≥ 70 |  |  | ≥ 90 | ≥ 70 |  | ≥ 90
11 | CCc1cc(Br)cc(C)c1C1=C(O)C2(CCCC(OC)C2)OC1=O (centres unmarked) [Example I-2-a-13] |  | ≥ 70 | ≥ 70 | ≥ 70 | ≥ 70 |  |  | ≥ 90 |  |  | 
12 | CCOC(=O)OC1=C(c2c(C)cc(C)cc2C)C(=O)NC12CCCC(OC)C2 (single isomer, unassigned) [Example I-1-c-3] |  |  |  |  |  |  |  |  |  | ≥ 80 | 
13 | COC1CCCC2(C1)OC(=O)C(c1c(C)cc(C)cc1C)=C2OC(=O)C(C)C (centres unmarked) [Example I-2-b-3] |  |  |  |  |  |  |  | ≥ 90 | ≥ 70 | ≥ 80 | 
14 | CCCCOC1CCCC2(C1)NC(=O)C(c1c(C)cc(C)cc1CC)=C2O (single isomer, unassigned) [Example I-1-a-63] | ≥ 80 | ≥ 70 | ≥ 70 | ≥ 70 | ≥ 70 | ≥ 80 | ≥ 80 |  |  |  | 
15 | CCCCOC1CCCC2(C1)NC(=O)C(c1c(Br)cc(C)cc1CC)=C2O (single isomer, unassigned) [Example I-1-a-17] | ≥ 80 | ≥ 70 | ≥ 70 | ≥ 70 | ≥ 70 | ≥ 80 | ≥ 80 | ≥ 90 |  |  | ≥ 90
16 | CCCCOC1CCCC2(C1)NC(=O)C(c1c(C)cc(C)cc1C)=C2OC(=O)OCC (centres unmarked) [Example I-1-c-1] |  | ≥ 70 | ≥ 70 | ≥ 70 | ≥ 70 |  |  |  | ≥ 70 |  | 
17 | CCOC(=O)OC1=C(c2c(C)cc(C)cc2C)C(=O)NC12CCCC(OC)C2 (single isomer, unassigned) [Example I-1-c-2] |  | ≥ 70 | ≥ 70 | ≥ 70 | ≥ 70 |  |  | ≥ 90 | ≥ 70 |  | 
18 | CCOC1CCCC2(C1)NC(=O)C(c1c(Br)cc(C)cc1CC)=C2O (single isomer, unassigned) [Example I-1-a-18] |  | ≥ 70 | ≥ 70 | ≥ 70 | ≥ 70 |  |  | ≥ 90 |  |  | 
19 | CCCCOC1CCCC2(C1)NC(=O)C(c1c(C)cc(C)cc1C)=C2OC(=O)C(C)C (centres unmarked) [Example I-1-b-1] |  | ≥ 70 | ≥ 70 | ≥ 70 | ≥ 70 |  |  |  |  |  | ≥ 90
20 | CCOC1CCCC2(C1)NC(=O)C(c1c(C)cc(C)cc1C)=C2O (single isomer, unassigned) [Example I-1-a-36] | ≥ 80 | ≥ 70 | ≥ 70 | ≥ 70 | ≥ 70 | ≥ 80 | ≥ 80 | ≥ 90 | ≥ 70 | ≥ 80 | ≥ 90
21 | CCc1cc(Cl)cc(OC)c1C1=C(O)C2(CCCC(OC)C2)NC1=O (single isomer, unassigned) [Example I-1-a-66] |  | ≥ 70 | ≥ 70 | ≥ 70 | ≥ 70 |  |  |  |  |  | 
22 | CCCCOC1CCCC2(C1)NC(=O)C(c1c(C)cc(C)cc1C)=C2OC(=O)COCC (single isomer, unassigned) [Example I-1-b-26] |  | ≥ 70 | ≥ 70 | ≥ 70 | ≥ 70 |  |  |  |  |  | 
23 | COC1CCCC2(C1)OC(=O)C(c1cc(-c3ccc(Cl)cc3)ccc1C)=C2O (single isomer, unassigned) [Example I-2-a-32] |  |  |  |  |  |  |  | ≥ 90 |  | ≥ 80 | 
